{"source": "PubChem BioAssay AID1053208 (Peter MacCallum Cancer Centre, 2014)", "purpose": "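Genes whose silencing cuts survival of bone tumour cells only with doxorubicin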 (primary screen)", "cells": "mouse osteosarcoma cells, early-passage culture from an engineered mouse model of fibroblastic bone tumour", "reagents": "siRNA pool against mouse genes, 40 nM", "timing": "about 120 h (48 h before drug, then 72 h with drug)", "treatment": "doxorubicin 100 nM for 72 h, roughly 30-40% inhibitory dose", "measured": "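Luminescent ATP signal taken as viability with or without 100 nM doxorubicin for 72 h; mean of two wells set against non-targeting siRNA and turned into robust z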", "reading the numbers": "viability z-score with doxorubicin: higher = more viable cells under doxorubicin; viability z-score without drug: higher = more viable cells with knock-down alone", "active means": "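a pool counts as active when its viability z-score with doxorubicin is -2 or below and its z-score without drug lies between -2 and 2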", "note": "The deposit covers about 17,000 reagents; below is a random part of them. Over the whole deposit, 788 (4.7%) got an active call. 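Calls rest on z-score classes alone; an extra cut-off of viability at most 70% of control was not applied to them.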 Unmarked entries are inactive. Not all columns of the deposit are shown."}
{"target": "Samd4b", "combined z-score class": "no change with or without drug", "viability z-score with doxorubicin": -1.24, "viability z-score without drug": -0.34}
{"target": "Cldn13", "combined z-score class": "no change with or without drug", "viability z-score with doxorubicin": -1.8, "viability z-score without drug": -0.17}
{"target": "Cited2", "combined z-score class": "no change with or without drug", "viability z-score with doxorubicin": -1.46, "viability z-score without drug": -0.84}
{"target": "Or5p69", "combined z-score class": "no change with or without drug", "viability z-score with doxorubicin": -1.57, "viability z-score without drug": 0.17}
{"target": "Rnf114", "combined z-score class": "no change with or without drug", "viability z-score with doxorubicin": -1.69, "viability z-score without drug": 1.69}
{"target": "Wasf2", "combined z-score class": "no change with or without drug", "viability z-score with doxorubicin": -0.79, "viability z-score without drug": -0.67}
{"target": "Fam199x", "combined z-score class": "no change with or without drug", "viability z-score with doxorubicin": 1.69, "viability z-score without drug": 0}
{"target": "Il1rap", "combined z-score class": "no change with or without drug", "viability z-score with doxorubicin": -1.35, "viability z-score without drug": -0.17}
{"target": "Or51f5", "combined z-score class": "no change with or without drug", "viability z-score with doxorubicin": -0.67, "viability z-score without drug": -1.18}
{"target": "Ocm", "combined z-score class": "no change with or without drug", "viability z-score with doxorubicin": 0.79, "viability z-score without drug": 0.51}
{"target": "Atp2c1", "combined z-score class": "no change with or without drug", "viability z-score with doxorubicin": -0.67, "viability z-score without drug": -0.17}
{"target": "Myom1", "combined z-score class": "no change with or without drug", "viability z-score with doxorubicin": 0, "viability z-score without drug": -0.84}
{"target": "Map4k2", "combined z-score class": "low cell count without drug only", "viability z-score with doxorubicin": -1.12, "viability z-score without drug": -2.02}
{"target": "Smg6", "combined z-score class": "no change with or without drug", "viability z-score with doxorubicin": -0.45, "viability z-score without drug": -0.17}
{"target": "Or4k15", "combined z-score class": "no change with or without drug", "viability z-score with doxorubicin": -0.67, "viability z-score without drug": -0.84}
{"target": "Elp5", "combined z-score class": "no change with or without drug", "viability z-score with doxorubicin": 0.9, "viability z-score without drug": 0.34}
{"target": "Six1", "combined z-score class": "no change with or without drug", "viability z-score with doxorubicin": -0.45, "viability z-score without drug": -0.17}
{"target": "Rhoq", "combined z-score class": "no change with or without drug", "viability z-score with doxorubicin": 0, "viability z-score without drug": 1.69}
{"target": "Cttnbp2nl", "combined z-score class": "no change with or without drug", "viability z-score with doxorubicin": 0.9, "viability z-score without drug": 0.84}
{"target": "Pknox1", "combined z-score class": "no change with or without drug", "viability z-score with doxorubicin": 0.9, "viability z-score without drug": 0.67}
{"target": "Nxph3", "combined z-score class": "no change with or without drug", "viability z-score with doxorubicin": -0.56, "viability z-score without drug": -1.35}
{"target": "Or9g19", "combined z-score class": "no change with or without drug", "viability z-score with doxorubicin": -1.8, "viability z-score without drug": -0.67}
{"target": "Cdc37", "combined z-score class": "no change with or without drug", "viability z-score with doxorubicin": -0.11, "viability z-score without drug": 1.01}
{"target": "Spata31d1a", "combined z-score class": "no change with or without drug", "viability z-score with doxorubicin": -1.12, "viability z-score without drug": 0.34}
{"target": "Plk4", "combined z-score class": "no change with or without drug", "viability z-score with doxorubicin": 1.12, "viability z-score without drug": 0.17}
{"target": "Nit2", "combined z-score class": "no change with or without drug", "viability z-score with doxorubicin": -0.9, "viability z-score without drug": -0.17}
{"target": "Sumo2", "combined z-score class": "no change with or without drug", "viability z-score with doxorubicin": 0, "viability z-score without drug": -0.67}
{"target": "Sphk1", "combined z-score class": "no change with or without drug", "viability z-score with doxorubicin": 1.46, "viability z-score without drug": 1.52}
